Measured values from patent US20240409598A1 (Janssen Biotech, Inc., priority 2021, published 2024).

Test: general procedure: Fmoc solid-phase peptide synthesis; Rink Amide MBHA resin (100-200 mesh, 0.57 mmol/g or 0.66 mmol/g) for C-terminal amides; pre-loaded Wang resin for C-term; HBTU/DIEA; PyAOP/DIEA for some couplings; Oxyma/DIC (microwave); HATU/DIEA in Ex
Conditions: for oxidative folding yield: oxidative folding step, for this step
[1] = TFA salt, counterion exchange to acetate for SEQ ID NO: 1, one disulfide bridge, sequence written open
[2] = whole synthesis, Analytical RP-HPLC, Gemini C18 column (4.6 mm x 250 mm), TFA salt, counterion exchange to acetate for SEQ ID NO: 1, one disulfide bridge, sequence written open
[3] = whole synthesis, overall, TFA salt, counterion exchange to acetate for SEQ ID NO: 1, one disulfide bridge, sequence written open
[4] = whole synthesis, TFA salt, counterion exchange to acetate for SEQ ID NO: 1, thioether ring, sequence written open

| Substance | oxidative folding yield [1] | final purity (method not given) [2] | isolated yield [3] | final HPLC purity (whole synthesis, Analytical RP-HPLC, Gemini C18 column (4.6 mm x 250 mm), acetate) | final purity (method not given) (whole synthesis, Analytical RP-HPLC, Gemini C18 column (4.6 mm x 250 mm), TFA salt, counterion exchange to acetate for SEQ ID NO: 1, thioether ring, sequence written open) | crude yield [4] | isolated yield [4] |
| --- | --- | --- | --- | --- | --- | --- | --- |
| MeCO-Pen-N-T-7MeW-K(Ac)-Pen-AEF(G)-2Nal-THP-E-N-3Pya-Sar-CONH2 | 31.0% | 96.4% | 25.5% | – | – | – | – |
| Ac-[Pen]*-N-T-[W (7-Me)]-[Lys(Ac)]-[Pen]*-Phe [4-(2-aminoethoxy)]-[2-Nal]-[THP]-E-N-[3-Pal]-Sarc-NH2 (*Pen-Pen form disulfide bond) | – | – | – | >95% | – | – | – |
| MeCO-r-Pen-N-T-7MeW-K(Ac)-Pen-AEF-2Nal-THP-E-N-5MePyridinAla-Sar-CONH2 | 17.0% | 96.4% | 14.8% | – | – | – | – |
| MeCO-r-Abu (1)-N-T-W-K(Ac)-aMeC (1)-AEF-2Nal-THP-E-N-3Pya-Sar-CONH2 | – | – | – | – | 95.2% | 75.7% | 6.72% |
